Experimental data taken from article PMC6662699.
These are yes or no findings as the source states them, for the method shown. In cells and extracts the contact can be indirect. For some assays here: Binding calls can cover weak binding; strength is not graded here. Sequences can lack the tags named with a protein.

How the values were obtained:
GFP-STIL [1] = assay: condition: only with kinase-dead Myc-Plk4-KD co-expressed; co-IP; HEK293T cells co-expressing GFP-STIL, HA-Cep131 and kinase-dead Myc-Plk4-KD; GFP-magnetic beads; immunoblotting (Fig. 5c)
GFP-STIL [2] = assay: co-IP; HEK293T cells co-expressing GFP-STIL with Myc-Plk4 and/or Cep131 (WT or 2A); GFP-magnetic beads; immunoblotting (Fig. 5a, b)

B1: HA-Cep131-WT (protein, UniProt Q9UPN4 1-1083)
chain: MKGTRAIGSVPERSPAGVDLSLTGLPPPVSRRPGSAATTKPIVRSVSVVTGSEQKRKVLEATGPGGSQAINNLRRSNSTTQVSQPRSGSPRPTEPTDFLMLFEGSPSGKKRPASLSTAPSEKGATWNVLDDQPRGFTLPSNARSSSALDSPAGPRRKECTVALAPNFTANNRSNKGAVGNCVTTMVHNRYTPSERAPPLKSSNQTAPSLNNIIKAATCEGSESSGFGKLPKNVSSATHSARNNTGGSTGLPRRKEVTEEEAERFIHQVNQATVTIQRWYRHQVQRRGAGAARLEHLLQAKREEQRQRSGEGTLLDLHQQKEAARRKAREEKARQARRAAIQELQQKRALRAQKASTAERGPPENPRETRVPGMRQPAQELSPTPGGTAHQALKANNTGGGLPAAGPGDRCLPTSDSSPEPQQPPEDRTQDVLAQDAAGDNLEMMAPSRGSAKSRGPLEELLHTLQLLEKEPDVLPRPRTHHRGRYAWASEVTTEDDASSLTADNLEKFGKLSAFPEPPEDGTLLSEAKLQSIMSFLDEMEKSGQDQLDSQQEGWVPEAGPGPLELGSEVSTSVMRLKLEVEEKKQAMLLLQRALAQQRDLTARRVKETEKALSRQLQRQREHYEATIQRHLAFIDQLIEDKKVLSEKCEAVVAELKQEDQRCTERVAQAQAQHELEIKKLKELMSATEKARREKWISEKTKKIKEVTVRGLEPEIQKLIARHKQEVRRLKSLHEAELLQSDERASQRCLRQAEELREQLEREKEALGQQERERARQRFQQHLEQEQWALQQQRQRLYSEVAEERERLGQQAARQRAELEELRQQLEESSSALTRALRAEFEKGREEQERRHQMELNTLKQQLELERQAWEAGRTRKEEAWLLNREQELREEIRKGRDKEIELVIHRLEADMALAKEESEKAAESRIKRLRDKYEAELSELEQSERKLQERCSELKGQLGEAEGENLRLQGLVRQKERALEDAQAVNEQLSSERSNLAQVIRQEFEDRLAASEEETRQAKAELATLQARQQLELEEVHRRVKTALARKEEAVSSLRTQHEAAVKRADHLEELLEQHRRPTPSTK
- binding (GFP-STIL [1]): no binding
- binding (GFP-STIL [2]): binds
